The text below walks through data of PubChem BioAssay AID248 (DTP/NCI, 2004).

The test system of this test is L1210 leukemia ip in BDF1 mice, survival T/C. Kind of test: NCI In Vivo Anticancer Drug Screen. Data for tumor model L1210 Leukemia (intraperitoneal) in B6D2F1 (BDF1) mice. The following applies: T/C endpoint: mean survival time, higher T/C = longer survival.
Setting [1] is: dose: 400.0 mg/kg/injection, schedule: Q01DX001 (ip), vehicle: carboxymethylcellulose (CMC).
Setting [2] is: dose: 200.0 mg/kg/injection, schedule: Q04DX003 (ip), vehicle: saline.
Setting [3] is: dose: 400.0 mg/kg/injection, schedule: Q04DX003 (ip), vehicle: saline.
Where [4] appears, read: dose: 400.0 mg/kg/injection, schedule: Q01DX001 (ip), vehicle: saline with Tween-80.
The mark [5] stands for this setting: dose: 400.0 mg/kg/injection, schedule: Q04DX003 (ip), vehicle: Klucel (hydroxypropylcellulose) (HPC).
The mark [6] stands for this setting: dose: 100.0 mg/kg/injection, schedule: Q01DX001 (ip), vehicle: saline.
Setting [7] is: dose: 200.0 mg/kg/injection, schedule: Q01DX001 (ip), vehicle: saline.
Setting [8] is: dose: 400.0 mg/kg/injection, schedule: Q01DX001 (ip), vehicle: saline.
Where [9] appears, read: dose: 25.0 mg/kg/injection, schedule: Q01DX009 (ip), vehicle: Klucel (hydroxypropylcellulose) (HPC).
Where [10] appears, read: dose: 200.0 mg/kg/injection, schedule: Q04DX003 (ip), vehicle: Klucel (hydroxypropylcellulose) (HPC).
Setting [11] is: dose: 400.0 mg/kg/injection, schedule: Q01DX001 (ip), vehicle: Klucel (hydroxypropylcellulose) (HPC).
Setting [12] is: dose: 100.0 mg/kg/injection, schedule: Q01DX009 (ip), vehicle: Klucel (hydroxypropylcellulose) (HPC).

Molecules are shown by their SMILES. The list shows only some results of the screen, not a fair sample: it is rich in T/C values a quarter to a half above the control, in often repeated tests (any T/C) and in doses without a T/C. Other doses and runs of a compound stand elsewhere. T/C is the treated group as % of the vehicle group. Some doses have a count of surviving animals in place of a T/C: the source holds a T/C of zero for them, seemingly a mark for toxic or unscored doses. Some survivor counts are full or nearly so, which does not show that the dose was tolerated: the source hardly ever lists a survival T/C far under the control, and the zero likely stands for such cases as well. Counts of survivors are from the toxicity check (mostly the fifth day) where no day follows; animals may have died later. Schedules are NCI's codes, read here as Q, the interval in days (D) or hours (H), X, the number of doses. Some entries were tested several times; the values are given in rising order. Some schedules carry Z or #; the key to these is not given. Some molecules as drawn cover several salts, stereoisomers or complexes of the source; a dose is that of the sample tested. Where survival is the endpoint, the PubChem record calls one and a half times the control and up active, and a quarter to a half above the control has no call in these data; cut-offs in other NCI protocols can differ. Some T/C values carry the count of animals alive at the toxicity check (mostly the fifth day); without a count, all were alive then.

Regarding `COc1cc(C=Nc2ccc(-c3csc(COc4ccccc4)n3)cc2)ccc1N(CCCl)CCCl`, the T/C (dose: 7.5 mg/kg/injection, schedule: Q01DX015 (ip), vehicle: carboxymethylcellulose (CMC)) is 125 % of control; the T/C (dose: 14.0 mg/kg/injection, schedule: Q01DX015 (ip), vehicle: carboxymethylcellulose (CMC)) was 125 % of control; the T/C (dose: 15.0 mg/kg/injection, schedule: Q01DX015 (ip), vehicle: carboxymethylcellulose (CMC)) is 146 % of control; the T/C (dose: 22.0 mg/kg/injection, schedule: Q01DX015 (ip), vehicle: carboxymethylcellulose (CMC), evaluated on day 30) was 132 and 157 % of control; the T/C (dose: 22.0 mg/kg/injection, schedule: Q01DX015 (ip), vehicle: carboxymethylcellulose (CMC), run until all animals had died) is 106 [5 of 6 alive] and 114 % of control [5 of 6 alive]; the T/C (dose: 44.4 mg/kg/injection, schedule: Q01DX001 (ip), vehicle: carboxymethylcellulose (CMC)) is 138 % of control. Moreover, the T/C was 145 % of control (dose: 100.0 mg/kg/injection, schedule: Q01DX001 (ip), vehicle: carboxymethylcellulose (CMC)) and 127 % of control (dose: 150.0 mg/kg/injection, schedule: Q01DX001 (ip), vehicle: carboxymethylcellulose (CMC)). Further, the survivor count is 5 of 6 (dose: 33.0 mg/kg/injection, schedule: Q01DX015 (ip), vehicle: carboxymethylcellulose (CMC)); 3 of 6 and 4 of 6 (dose: 75.0 mg/kg/injection, schedule: Q01DX015 (ip), vehicle: carboxymethylcellulose (CMC)); 0 of 4 under setting [1].

For the compound `CCCCCCC(=O)N(CCCC)CCCC`, under “dose: 400.0 mg/kg/injection, schedule: Q01DX009 (ip), vehicle: carboxymethylcellulose (CMC)”, the survivor count is 1 of 3 and 6 of 6.

With `CCOC(=O)c1ccc(NCC(C)(C)N)cc1`, the survivor count is recorded as 0 of 6 under setting [2] and 0 of 6 under setting [3].

For `OC1OC(COCc2ccccc2)C(OCc2ccccc2)C1OCc1ccccc1` (stereo not drawn), the survivor count under setting [4] was 3 of 3.

As for `Nc1csnn1`, the survivor count under setting [1] is 4 of 4.

Take `c1ccc2c[n+](CCc3c[nH]c4ccccc34)ccc2c1`: the survivor count runs as follows: (dose: 200.0 mg/kg/injection, schedule: Q04DX002 (ip), vehicle: Klucel (hydroxypropylcellulose) (HPC)) 0 of 3; (dose: 400.0 mg/kg/injection, schedule: Q04DX002 (ip), vehicle: Klucel (hydroxypropylcellulose) (HPC)) 0 of 3; under setting [5], 1 of 3.

Consider `CCOC(=O)CC1NCCc2c1[nH]c1ccccc21` (stereo not drawn), for which the survivor count is, setting by setting: under setting [6], 0 of 6; under setting [7], 0 of 6; under setting [8], 0 of 6.

In the case of `CS(=O)(=O)OCCCCCCCCOS(C)(=O)=O`, the T/C is, setting by setting: (dose: 16.0 mg/kg/injection, schedule: Q01DX009 (ip), vehicle: Klucel (hydroxypropylcellulose) (HPC)) 134 % of control [5 of 6 alive]; under setting [9], 142 % of control. Besides, the survivor count runs as follows: (dose: 100.0 mg/kg/injection, schedule: Q04DX003 (ip), vehicle: Klucel (hydroxypropylcellulose) (HPC)) 6 of 6; under setting [10], 1 of 6; under setting [5], 0 of 6.

With `Cc1ccc(S(C)=O)c(C)c1` (stereo not drawn), the survivor count (dose: 400.0 mg/kg/injection, schedule: Q01DX009 (ip), vehicle: saline) is recorded as 1 of 6.

In the case of `O=C(O)c1cccc(C#Cc2ccccc2)c1`, the survivor count under setting [11] is 3 of 6.

With `c1ccc(C2COC3(CCCCC3)O2)cc1` (stereo not drawn), the survivor count (dose: 500.0 mg/kg/injection, schedule: Q01DX Z (ip), vehicle: methylcellulose (MC)) is 6 of 6.

For `C#CC[N+]1=CN(c2ccc(C)cc2)Cc2cc(C)ccc21`, the survivor count is listed as 0 of 6 (dose: 200.0 mg/kg/injection, schedule: Q01DX009 (ip), vehicle: saline with Tween-80) and 3 of 6 (dose: 400.0 mg/kg/injection, schedule: Q04DX003 (ip), vehicle: saline with Tween-80).

In the case of `CCCCCCOP(=O)(N1CC1C)N1CC1C` (stereo not drawn), the T/C (dose: 100.0 mg/kg/injection, schedule: Q01DX Z (ip), vehicle: saline) is 129 % of control [4 of 6 alive].

As for `Cc1cccc(OC(=O)Nc2ccc(Cl)cc2)c1`, the survivor count (dose: 400.0 mg/kg/injection, schedule: Q01DX009 (ip), vehicle: saline with Tween-80) was 3 of 3.

Consider `CN(C1=CC(=O)C(=O)c2ccccc21)c1ccccc1`, for which, under setting [11], the survivor count is 0 of 6.

Regarding `CC(=O)O[C@@H]1C[C@@]2(C)[C@@H]3CC=C4[C@@H](C[C@H](O)C(=O)C4(C)C)[C@]3(C)C(=O)C[C@]2(C)[C@H]1[C@@](C)(O)C(=O)/C=C/C(C)(C)OC(C)=O`, the survivor count is, setting by setting: under setting [7], 1 of 4; under setting [8], 1 of 4.

With `COc1ccc(COC(=O)N=[N+]=[N-])cc1`, the survivor count is 5 of 6 under setting [12]; 0 of 6 (dose: 200.0 mg/kg/injection, schedule: Q01DX001 (ip), vehicle: Klucel (hydroxypropylcellulose) (HPC)); 1 of 6 under setting [11].

For the compound `CC1(C)OC2C(CNCCCl)OC(OCc3ccccc3)C2O1` (stereo not drawn), the survivor count under setting [2] is given as 3 of 6 and the survivor count under setting [3] was 0 of 6.

On to `COc1ccc(OC)c(NC(=O)Nc2nccs2)c1`, for which the T/C under setting [10] was 126 % of control.

`Cc1ccccc1N1CCN(c2ccccc2C)C1=C1N(c2ccccc2C)CCN1c1ccccc1C`: the survivor count (dose: 400.0 mg/kg/injection, schedule: Q04DX002 (ip), vehicle: DMSO) was 1 of 3.

Turning to `N#CSCC(=O)c1ccccc1`, the survivor count was 2 of 6 under setting [9]; 2 of 6 (dose: 50.0 mg/kg/injection, schedule: Q01DX009 (ip), vehicle: Klucel (hydroxypropylcellulose) (HPC)); 1 of 6 under setting [6]; 2 of 6 under setting [12]; 0 of 6 under setting [7]; 0 of 6 under setting [8].

Consider `S=C1OC(c2ccccc2)(c2ccccc2)c2ccsc21`, for which the survivor count (dose: 100.0 mg/kg/injection, schedule: Q01DX001 (ip), vehicle: saline with Tween-80) is listed as 3 of 3; the survivor count (dose: 200.0 mg/kg/injection, schedule: Q01DX001 (ip), vehicle: saline with Tween-80) is listed as 2 of 3; the survivor count under setting [4] is reported as 0 of 3.

As to `Nc1n[nH]c(=S)s1`, the survivor count runs as follows: (dose: 400.0 mg/kg/injection, schedule: Q01DX009 (ip), vehicle: Klucel (hydroxypropylcellulose) (HPC)) 3 of 6; (dose: 887.0 mg/kg/injection, schedule: Q01DX015 (ip), vehicle: Klucel (hydroxypropylcellulose) (HPC)) 0 of 10; (dose: 1000.0 mg/kg/injection, schedule: Q01DX001 (ip), vehicle: Klucel (hydroxypropylcellulose) (HPC)) 1 of 10; (dose: 1500.0 mg/kg/injection, schedule: Q01DX001 (ip), vehicle: Klucel (hydroxypropylcellulose) (HPC)) 0 of 10; (dose: 2250.0 mg/kg/injection, schedule: Q01DX001 (ip), vehicle: Klucel (hydroxypropylcellulose) (HPC)) 0 of 10; (dose: 3375.0 mg/kg/injection, schedule: Q01DX001 (ip), vehicle: Klucel (hydroxypropylcellulose) (HPC)) 0 of 10. In addition, the T/C (dose: 591.0 mg/kg/injection, schedule: Q01DX015 (ip), vehicle: Klucel (hydroxypropylcellulose) (HPC)) is 132 % of control [9 of 10 alive].

`O=C(CBr)c1ccc(I)cc1`: the survivor count (dose: 50.0 mg/kg/injection, schedule: Q01DX009 (ip), vehicle: saline with Tween-80) is 6 of 6; the survivor count (dose: 100.0 mg/kg/injection, schedule: Q01DX009 (ip), vehicle: saline with Tween-80) is 0 of 6; the survivor count under setting [1] is given as 2 of 4.
